Screen size: about 360,000 compounds; about 7,500 (2.1%) were called active. The inconclusive results got no clear call from the source; some entries with a clear call stand among them for comparison. The call rests on the fitted dose curve; in most records, active means well fitted inhibition curve with a large enough effect; inconclusive means small, poorly fitted or top-dose-only effect, or effect the other way; inactive means flat fitted curve, though single readings scatter. Potencies beside an inconclusive call are fits to weak or partial responses and may not hold up.
Test: Nrf2 qHTS screen for inhibitors; further: nearly all actives have a fitted effect of over 60% in size
Details: A549 ARE-Fluc reporter, luciferase luminescence, 18-24 h; activity change, negative = inhibition: at 46 µM (top of the series)
Outline: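 A549 ARE_Fluc cells (5000/well, 5% FBS OPTI-MEM) pre-incubated 2 h, then treated with compounds 18-24 h at 37C/5% CO2 in concentration-response. CellTiter-Fluor viability read first; BugLite luciferase luminescence after 15 min at room temperature gives Nrf2 activity.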
For `Cc1ccc(NC(=O)CSc2ccccc2NC(=O)c2ccccc2)cc1Cl`, the Potency was inconclusive: 29.1 µM [falling, single point].
With `COc1ccc(C2Nc3ccccc3C(=O)N2CCO)cc1COc1ccc(NC(C)=O)cc1` (stereo not drawn) the “activity change, negative = inhibition” value was inactive: -11.3%.
In the case of `CC(C)c1ccc2oc(-c3cc(N)ccc3O)nc2c1`, the Potency is reported as inconclusive: 13 µM [activator, partial curve].
In the case of `CCOc1cccc(C(=O)Nc2ccc3c(c2)OCCO3)c1`, the Potency is reported as inconclusive: 0.291 µM [activator, full curve, poor fit].
In the case of `CN(Cc1c(F)cccc1Cl)C(=O)CNC(=O)c1cccs1`, the Potency is reported as inconclusive: 13 µM [activator, partial curve].
With `COc1ccc(CN2CCN(C(c3ccc(F)cc3)c3ccc(F)cc3)CC2)c(OC)c1OC` the Potency was inconclusive: 23.1 µM [falling, single point].
For `COc1ccc(S(=O)(=O)Nc2ccc(Cc3ccncc3)cc2)cc1OC`, the Potency was active: 6.51 µM.
With `COc1ccc(S(=O)(=O)N2CCOCC2)cc1C(=O)Nc1ccc(N2CCCCCC2)cc1` the Potency was inconclusive: 29.1 µM [falling, single point].
With `Nc1cc2c3ccccc3ccc2c2ccccc12` the Potency was inconclusive: 23.1 µM [activator, partial curve].
For `CCCC1=Nc2cc(C(=O)N3CCC(C(=O)OCC)CC3)ccc2Sc2ccccc21`, the Potency was “inactive”.
In the case of `C=CCN1CCN(C(=O)c2oc3ccccc3c2C)CC1`, the Potency is reported as inconclusive: 23.1 µM [activator, single point].
With `COc1ccc(-c2cc(C(=O)N3CCCCCC3)c3ccccc3n2)cc1` the “activity change, negative = inhibition” value was inactive: -2.18%.
With `Cc1ccc(C)c(Cn2cnc3c(cnn3C(C)(C)C)c2=O)c1` the Potency was inconclusive: 32.6 µM [falling, single point].
With `CCOC(=O)c1cnc2ccc(OCC)cc2c1NCc1ccccc1` the Potency was inconclusive: 29.1 µM [falling, single point].
For `O=C(Nc1nc2ccccc2[nH]1)c1ccccc1O`, the Potency was inconclusive: 1.46 µM [activator, partial curve, poor fit].
In the case of `Cc1ccc(NC(=O)CCC(=O)c2ccc(F)cc2)cc1Cl`, the “activity change, negative = inhibition” value is reported as inactive: 7.94%.
With `O=C(COC(=O)C12CC3CC(CC(Cl)(C3)C1)C2)N1CCCCC1` the Potency was inconclusive: 16.4 µM [activator, partial curve, poor fit].
With `NC(=O)c1nsc(C(=O)N(c2cccc(F)c2)C(C(=O)NC2CCCC2)c2ccc(O)cc2)c1N` (stereo not drawn) the Potency was inconclusive: 0.146 µM [activator, full curve, poor fit].
In the case of `CCCOc1ccc(C(=O)CCC(=O)OCC(=O)N2CC(=O)Nc3ccccc32)cc1`, the Potency is reported as inconclusive: 4.11 µM [falling, full curve, poor fit].
For `Cc1nn2c(NCCCN(C)C)c3c(nc2c1-c1ccccc1)CCC3`, the Potency was inconclusive: 23.1 µM [activator, single point].
In the case of `CC(=O)Nc1nc(-c2ccc3c(c2)OCO3)cs1`, the Potency is reported as inconclusive: 29.1 µM [activator, single point].
In the case of `CN(C)S(=O)(=O)c1ccc(C(=O)NCCOc2ccccc2)cc1`, the Potency is reported as inconclusive: 11.6 µM [activator, partial curve].
In the case of `Cn1c(=O)c2c(nc(C3CC4C5CCC(C5)C4C3)n2C)n(C)c1=O` (stereo not drawn), the Potency is reported as inconclusive: 16.4 µM [falling, partial curve, poor fit].
In the case of `COc1ccccc1C(=O)N(c1ccc(C)cc1)S(=O)(=O)c1ccc(Cl)cc1`, the Potency is reported as inconclusive: 29.1 µM [falling, single point].
For `O=S(=O)(/N=C(/Nc1cc(N2CCOCC2)ncn1)c1ccccc1)c1ccccc1`, the Potency was inconclusive: 4.11 µM [activator, full curve, poor fit].
In the case of `COc1ccc(-c2csc3ncnc(N4CCN(S(=O)(=O)c5ccc(Cl)s5)CC4)c23)cc1`, the “activity change, negative = inhibition” value is reported as inactive: -8.78%.
With `Oc1cc2c(cc1C(c1ccc(Br)cc1)N1CCCC1)OCO2` (stereo not drawn) the “activity change, negative = inhibition” value was inactive: 6.6%.
In the case of `Cc1cccc(C)c1NC(=O)COc1ccc2c(C)c(Cc3ccccc3)c(=O)oc2c1`, the Potency is reported as inconclusive: 13 µM [falling, partial curve, poor fit].
With `Cc1ccc(CNc2nc3ccccc3n3cnnc23)cc1` the Potency was inconclusive: 0.82 µM [falling, full curve].
In the case of `CCOC(=O)N1CCC(n2c(SCC(=O)Nc3ccccc3OC)nc3ccccc3c2=O)CC1`, the Potency is reported as active: 14.6 µM.
For `Cc1cc(C)c2nc(-c3ccccn3)cc(C(=O)Nc3ccc(S(=O)(=O)Nc4cc(C)on4)cc3)c2c1`, the Potency was inconclusive: 29.1 µM [falling, single point].
In the case of `Cc1ccsc1C(=O)OCC(=O)Nc1cccc(S(=O)(=O)N2CCOCC2)c1`, the Potency is reported as inconclusive: 29.1 µM [falling, single point].
For `CN(C(=O)C(C)(C)C)C1c2c(ccc3ccccc23)OCC1CO` (stereo not drawn), the “activity change, negative = inhibition” value was inactive: 2%.
For `Cc1oc(-c2ccc(Cl)cc2)nc1Cn1c(=O)cc(C)c2c(C)nn(-c3ccccc3)c21`, the Potency was inconclusive: 0.58 µM [activator, partial curve, poor fit].
For `O=C(Nc1ccc(F)cc1F)c1ccc2c(=O)n3c(nc2c1)CCC3`, the Potency was inconclusive: 1.3 µM [activator, full curve, poor fit].
With `COc1ccc(NC(=O)Nc2cccc(C(F)(F)F)c2)cn1` the Potency was inconclusive: 29.1 µM [falling, single point].
With `CCn1c(COc2ccccc2C)nc2ccccc21` the Potency was inconclusive: 13 µM [activator, partial curve, poor fit].
In the case of `CCOC(=O)c1ccc(COC(=O)CCc2nc3ccccc3[nH]c2=O)o1`, the “activity change, negative = inhibition” value is reported as inactive: -16.4%.
In the case of `CC(=O)Nc1ccccc1NS(=O)(=O)c1ccc(Cl)cc1`, the Potency is reported as inconclusive: 8.2 µM [falling, partial curve, poor fit].
With `Cc1cc(C(=O)OCC(=O)N2C(C)CCCC2C)c2ccccc2n1` (stereo not drawn) the Potency was active: 18.4 µM.
For `CN(C)/C=C/C(=O)c1ccc(Br)cc1`, the Potency was inconclusive: 29.1 µM [activator, single point].
With `Cn1c(=O)n(C)c2cc(N3CCOCC3)c(NS(=O)(=O)c3cccc(C#N)c3)cc21` the “activity change, negative = inhibition” value was inactive: 2.56%.
With `Cc1nn2cc(-c3ccc(OC(C)C)cc3)nc2s1` the Potency was inconclusive: 0.231 µM [activator, full curve, poor fit].
On the % scale 0 is the no-effect control and ±100 the full control effect; potency means the concentration at half of the fitted maximal effect.
